# Primary screen of a compound library

Chains of the proteins cited; added tags and fusions are not shown.
UniProt E9BF75, entry or part of it: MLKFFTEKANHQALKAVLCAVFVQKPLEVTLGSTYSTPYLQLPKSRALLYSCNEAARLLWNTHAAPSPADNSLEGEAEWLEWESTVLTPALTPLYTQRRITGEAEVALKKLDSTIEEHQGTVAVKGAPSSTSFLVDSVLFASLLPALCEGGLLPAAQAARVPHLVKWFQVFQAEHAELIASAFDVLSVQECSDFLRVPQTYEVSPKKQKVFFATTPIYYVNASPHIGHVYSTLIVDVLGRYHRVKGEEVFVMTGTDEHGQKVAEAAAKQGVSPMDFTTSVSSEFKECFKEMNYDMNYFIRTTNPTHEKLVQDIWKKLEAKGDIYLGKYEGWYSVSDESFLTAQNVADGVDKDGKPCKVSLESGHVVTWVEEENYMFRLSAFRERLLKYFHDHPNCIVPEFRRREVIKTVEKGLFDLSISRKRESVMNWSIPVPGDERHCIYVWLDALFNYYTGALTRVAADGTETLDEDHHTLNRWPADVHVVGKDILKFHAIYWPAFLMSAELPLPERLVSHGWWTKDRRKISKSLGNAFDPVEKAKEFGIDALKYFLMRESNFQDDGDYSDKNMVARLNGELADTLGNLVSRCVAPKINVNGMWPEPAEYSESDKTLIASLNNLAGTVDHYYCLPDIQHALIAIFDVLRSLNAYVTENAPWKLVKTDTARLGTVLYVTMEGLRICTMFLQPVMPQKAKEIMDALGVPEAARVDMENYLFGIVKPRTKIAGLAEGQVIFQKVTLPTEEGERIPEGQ

Measurements from “University of Dundee, Small-Polar-MMV Screening Library” (2021), ChEMBL document CHEMBL3988442.

All values are in %. How 0% and 100% were set is not recorded. Most values in the screen are low, and negative values occur. Compounds were drawn at random from those tested, without regard to their results.

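Methionyl-tRNA synthetase (putative), Leishmania donovani (UniProt E9BF75). Primary screen of methionyl-tRNA synthetase; the read-out is not stated. The test concentration is not given. The values are filed as inhibition. Size under these conditions: about 68,000 compounds, about 24 of them at 50% or above in at least one test.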

Compound | Inhibition
Cc1ccc(N2C[C@@H]3OCCN(Cc4c(C)noc4C)[C@@H]3C2)nn1 | 4.918%
Cc1nc(C)n(CC2CN(c3ncnc4[nH]ccc34)CCO2)n1 (centres unmarked) | 19.44%
CNC(=O)CCN(C)c1nc(-c2ccncc2)nc2c1CCNC2 | 4.439%
CC(C)(C)NC(=O)C1CSCN1S(=O)(=O)c1ccccc1F (centres unmarked) | -2.93%
COCCC1(CO)CCCN(C(=O)c2cc(Cl)ccc2F)C1 (centres unmarked) | 6.269%
N#Cc1nccnc1N1CCC(OCCCc2ccccc2)C1 (centres unmarked) | 12.1%
Cc1ccc(CNC(=O)NCc2nccn2C)c(OC(C)(C)C)c1 | 3.252%
Cc1ncsc1CN1CCN(C2CCOCC2)CC(C(N)=O)C1 (centres unmarked) | 5.825%
Cc1ccc(CN2CCN(C(=O)CCc3nc(Cl)n[nH]3)CC2=O)cc1 | 6.625%
CCn1nc(C(=O)N2CCCC2c2noc(C)n2)ccc1=O (centres unmarked) | 0.2688%
CCCC(=O)NCc1cccc(C(=O)OC)c1 | 5.435%
CCC(O)CN1CCN(C(=O)Cc2cc(C)ccc2OC)CC1 (centres unmarked) | 21.31%
COc1ccc(C(C)N2CCC(C(=O)NC3CC3)CC2)cc1Cl (centres unmarked) | 17.71%
O=C(Nc1ccc(=O)n(Cc2ccccc2Cl)c1)C1CC1 | 12.72%
CCc1csc(C2CCCN(C(=O)c3ccncc3)C2)n1 (centres unmarked) | 2.089%
Cc1nc[nH]c1-c1nccn1-c1cccc(CN2CCCC2)c1 | 4.8%
O=c1n(Cc2ncccn2)nc(C2CCNCC2)n1-c1ccccc1 | 8.933%
CCn1c(CN(C)CC(F)(F)F)nc2c(F)cccc21 | 2.486%
CC(NCC1CCN(CCO)CC1)c1cccnc1 (centres unmarked) | 7.796%
Cc1nn(C)cc1-c1ccnc(N2CCN(c3ccccc3)C(=O)C2)n1 | 15.08%
Cc1nn(C)c(C)c1C(=O)N1CCOCC1CC(=O)c1ccco1 (centres unmarked) | 11.97%
O=C1CCCN1Cc1nnc2n1CCCN(C(=O)c1ccco1)C2 | 6.557%
CCn1nc(Br)nc1Sc1ccccc1NC(C)=O | -2.87%
CC(=O)NC1CCCN(C(=O)c2ccc(Br)cc2O)C1 (centres unmarked) | 9.804%
COc1ccc(CN2CC[C@@H](N)[C@@H](OC)C2)cc1Cn1cncn1 | 5.783%
Cn1cc(C(=O)N2CC[C@@H]3[C@@H]2CCN3Cc2cccc(F)c2)cn1 | 13.13%
Cc1ccc(CN(CC(=O)NC2CCOCC2)c2ccc(F)cc2)o1 | 11.17%
Cc1nc(CN2C(=O)CC[C@@H]3[C@H]2CCN3C(=O)C2CCCO2)cs1 (some centres unmarked) | 19.31%
CNC(=O)C1(c2cnccn2)CCCN1C(=O)c1cccnc1OC (centres unmarked) | 11.3%
CC(C)(C)CC(=O)NS(=O)(=O)c1ccc(F)cc1C(F)(F)F | 12.53%
Fc1ccc(CN2C[C@@H]3OCCN(CC4CCCO4)[C@@H]3C2)cc1 (some centres unmarked) | 9.333%
CCc1nnc(SCc2nonc2C)n1C | -1.679%
c1cncc(CN2CCO[C@H]3[C@H](OCCN4CCCC4)CC[C@@H]32)c1 | 9.041%
N#Cc1cccn(CCOc2ccc(Cl)cc2)c1=O | 5.435%
Cc1ccc(C(=O)N2CC(C(N)=O)O[C@H](C)C2)c(F)c1 (some centres unmarked) | 5.108%
Cc1nn(C)c(C)c1C1CCCN1C(=O)c1cnccn1 (centres unmarked) | 15.19%
CCN(CC)C(=O)c1nnn(-c2ccc(C)cc2)c1C1CC1 | 5.397%
Cc1oncc1C(=O)N[C@@H]1CN(c2ncccn2)C[C@@H]2CCCO[C@@H]21 | 17.04%
Cc1nc(CC(=O)N2CCCC[C@H](N(C)C)C2)cs1 | 19.68%
Cc1c(-c2cc(C(F)(F)F)nc(N3CCC(N)CC3)n2)cnn1C | 8.393%
CN(Cc1ccncc1)Cc1nccn1Cc1ccccc1 | 5.301%
Cc1ccnc(N2CCC(OCCN3CCCCC3)C2)n1 (centres unmarked) | 10.08%
CCOCc1ccc(CNc2nc(OC)ncc2Cl)cc1 | 17.08%
CCOc1ccccc1-n1c(C2CCC2)n[nH]c1=O | 17.34%
Cc1cc(C(=O)N2CCCCC2C)ccc1NC(=O)N1CCOCC1 (centres unmarked) | 14.2%
Cc1nnc2n1CCN(Cc1ncc(-c3ccccc3)o1)C2 | 11.48%
CCCn1nc2c(cc1=O)CN(c1ncnc3sccc13)CC2 | 8.871%
O=C(CSc1ccncc1)NC1CC(=O)N(CCc2ccccc2)C1 (centres unmarked) | 13.68%
Cc1cc(CN2CCN(C(=O)Nc3cccnc3)CC2)on1 | 18.37%
COc1cccc(N2CCN(Cc3cc(C)cc(F)c3)CC2=O)c1 | 14.65%
Cc1nc(CN2CCO[C@@H]3CN(C(=O)CC4CC4)CC[C@@H]3C2)cs1 | 10.46%
COC(=O)C1(NCC(=O)Nc2cc(C)ccc2OC)CCCCC1 | 15.54%
Cn1cc(C(=O)N2CC[C@@]3(O)CCN(C(=O)C4CCCC4)C[C@H]3C2)cn1 | 8.591%
COc1cc(CNCCc2cc(F)cc3c2OCOC3)cc(OC)c1 | 15.58%
CCN(CC)S(=O)(=O)c1ccc(OC)c(NC(=O)CSC)c1 | 19.84%
Cc1ccccc1OCC(=O)N1CCN(C2CCOC2=O)CC1 (centres unmarked) | 16.87%
O=C(c1ccc(C2CCNC2)cc1)N1CCC(N2CCC(O)CC2)CC1 (centres unmarked) | 19.82%
CN(Cc1nnc2n1CCC2)C(=O)c1ccc2c(c1)OCCCO2 | 3.988%
COc1ccc2c(c1)OCC(CNc1cc(N)nc(SC)n1)C2 (centres unmarked) | 25.69%
CN(C)CC(=O)N1CCC2(CC1)CN(c1ncccn1)CCO2 | 10.99%
CC(C)N1CCOCC2(CCCN(C(=O)CCc3cccnc3)C2)C1 (centres unmarked) | 6.875%
C[C@H]1C[C@H]2CN(C(=O)c3cccc4c3OCCO4)CC[C@H]2O1 | 7.971%

Some entries from above, unchanged:

Result for COCCC1(CO)CCCN(C(=O)c2cc(Cl)ccc2F)C1 (centres unmarked) was 6.269%.
Result for CCc1nnc(SCc2nonc2C)n1C was -1.679%.
Result for Cc1cc(C(=O)N2CCCCC2C)ccc1NC(=O)N1CCOCC1 (centres unmarked) was 14.2%.
Result for c1cncc(CN2CCO[C@H]3[C@H](OCCN4CCCC4)CC[C@@H]32)c1 was 9.041%.
Result for Cc1nc[nH]c1-c1nccn1-c1cccc(CN2CCCC2)c1 was 4.8%.
Result for CC(C)(C)NC(=O)C1CSCN1S(=O)(=O)c1ccccc1F (centres unmarked) was -2.93%.
Result for Cn1cc(C(=O)N2CC[C@@H]3[C@@H]2CCN3Cc2cccc(F)c2)cn1 was 13.13%.
Result for Cc1nc(CN2C(=O)CC[C@@H]3[C@H]2CCN3C(=O)C2CCCO2)cs1 (some centres unmarked) was 19.31%.